{
  "sequences": {"note": "Protein sequences, listed by entry. Tags and fused reporters are not part of them. Lines headed by an entry give the natural chain unless they say otherwise; changes in a name come on top.", "UniProt P51450": "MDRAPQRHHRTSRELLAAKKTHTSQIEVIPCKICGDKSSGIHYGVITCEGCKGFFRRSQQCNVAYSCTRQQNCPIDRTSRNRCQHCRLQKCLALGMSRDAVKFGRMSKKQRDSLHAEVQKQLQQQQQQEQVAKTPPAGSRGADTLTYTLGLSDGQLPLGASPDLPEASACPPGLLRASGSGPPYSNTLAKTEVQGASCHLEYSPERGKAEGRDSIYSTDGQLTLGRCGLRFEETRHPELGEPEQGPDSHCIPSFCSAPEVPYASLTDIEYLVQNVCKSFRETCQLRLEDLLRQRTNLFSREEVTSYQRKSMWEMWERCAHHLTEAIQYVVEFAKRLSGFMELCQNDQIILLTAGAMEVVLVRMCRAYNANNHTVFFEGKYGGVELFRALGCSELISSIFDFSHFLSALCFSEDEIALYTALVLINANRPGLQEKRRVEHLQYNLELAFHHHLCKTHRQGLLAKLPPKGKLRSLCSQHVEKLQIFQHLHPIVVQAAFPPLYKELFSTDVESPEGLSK"},
  "source": "PubChem BioAssay AID2551",
  "about": "(National Center for Advancing Translational Sciences (NCATS), 2010)",
  "note": "Screen size: about 310,000 compounds; about 17,000 (5.5%) were called active. Inconclusive results, whose numbers are uncertain, are shown with a selection of clear calls. The call rests on the fitted dose curve; in most records, active means well fitted inhibition curve with a large enough effect; inconclusive means small, poorly fitted or top-dose-only effect, or effect the other way; inactive means no such curve, though single readings can be large or run the other way. Where the call is inconclusive, the potency comes from a doubtful curve fit. On the % scale 0 is the no-effect control and ±100 the full control effect; potency means the concentration at half of the fitted maximal effect.",
  "data": [
    {"target": "Nuclear receptor ROR-gamma (Mus musculus) (UniProt P51450)", "experiment": "qHTS for inhibitors of ROR gamma transcriptional activity; further: nearly all actives have a fitted effect of over 60% in size", "details": "Drosophila S2 Gal4-RORgamma UAS-luciferase reporter, 20 h; activity change, negative = inhibition: at 53.6 µM (top of the series)", "how_it_was_run": "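Compounds are pin-transferred onto Drosophila Schneider cells expressing a copper-inducible Gal4–ROR gamma transactivation domain fusion. After 1 hr, copper sulfate is added to 700 uM final; luciferase is read 20 hr later.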", "values": [
      {"smiles": "CC[C@H](C)C(C(=O)N1CCN(C(=O)OC(C)(C)C)CC1)n1cc(C(CC(C)C)NC(=O)OC(C)(C)C)nn1", "note": "(stereo not given in full)", "activity change, negative = inhibition": "inactive: -40.9%"},
      {"smiles": "COc1cc(NS(=O)(=O)c2ccc(N=Cc3c(C)[nH]n(-c4ccccc4)c3=O)cc2)nc(OC)n1", "Potency": "inconclusive: 35.5 µM [activator, single point]"},
      {"smiles": "O=S(=O)(Nc1cccc(Oc2cnccn2)c1)c1ccc(F)cc1", "activity change, negative = inhibition": "inactive: 5.78%"},
      {"smiles": "COc1cc2cc(C(=O)N3CCOCC3)cc(-c3ccc(C)cc3)c2cc1OC", "Potency": "inconclusive: 35.5 µM [inhibitor, single point]"},
      {"smiles": "CCNC(=O)/C(C#N)=C/c1c(N2CCN(c3ccccc3)CC2)nc2c(C)cccn2c1=O", "Potency": "inconclusive: 35.5 µM [activator, partial curve]"},
      {"smiles": "O=C(Cc1ccc([N+](=O)[O-])cc1)Nc1cccc(C(F)(F)F)c1", "Potency": "inconclusive: 25.1 µM [activator, partial curve, poor fit]"},
      {"smiles": "CCCCCCCCn1c2c(c(=N)c3c1CCC3)CCCC2", "Potency": "active: 0.708 µM"},
      {"smiles": "CC(C)C(=O)c1cc2c(cc1NC(=O)c1ccccc1)OCCO2", "activity change, negative = inhibition": "inactive: -0.801%"},
      {"smiles": "Cc1ccc(CN(Cc2cccnc2)C(=S)Nc2cc(Cl)ccc2C)cc1", "Potency": "active: 3.16 µM"},
      {"smiles": "Oc1c(Br)cc(/C=N/NC(=S)NCc2ccco2)cc1Br", "Potency": "inconclusive: 28.2 µM [inhibitor, single point]"},
      {"smiles": "O=C(Nc1ccc(Cl)cc1)c1ccc(CN2CCc3ccccc3C2)cc1", "Potency": "inconclusive: 10 µM [inhibitor, partial curve]"},
      {"smiles": "Cn1c(-c2ccc([N+](=O)[O-])cc2)nc2ccccc21", "Potency": "inconclusive: 1 µM [activator, partial curve, poor fit]"},
      {"smiles": "O=C(CCN1CCN(c2ccccc2)CC1)NNC(=S)Nc1ccccc1", "Potency": "active: 10 µM"},
      {"smiles": "CCN(CC)c1ccc(CNc2nc3ccccc3n2CCN2CCCCC2)cc1", "Potency": "active: 8.91 µM"},
      {"smiles": "O=c1oc2ccccc2cc1-c1cn2ccccc2n1", "Potency": "active: 1 µM"},
      {"smiles": "CCN(CC)c1ccc(/C=N/NC(=S)NCc2ccccc2)c(O)c1", "Potency": "active: 8.91 µM"},
      {"smiles": "COc1ccc(OC)c(N=Cc2c(O)[nH]c3ccccc23)c1", "Potency": "inconclusive: 35.5 µM [inhibitor, single point]"},
      {"smiles": "O=[N+]([O-])c1ccccc1N/N=C/c1ccccc1", "Potency": "inconclusive: 35.5 µM [inhibitor, single point]"},
      {"smiles": "CCN(c1ccccc1)S(=O)(=O)c1ccc(NC(=O)c2ccco2)cc1", "Potency": "inconclusive: 17.8 µM [activator, single point]"},
      {"smiles": "COc1ccc(-c2csc(NC(=S)NC(=O)c3cccs3)n2)cc1OC", "Potency": "active: 4.47 µM"},
      {"smiles": "N/C(=N\\OC(=O)COc1ccc(Br)cc1Cl)c1ccccn1", "Potency": "inconclusive: 12.6 µM [inhibitor, single point]"},
      {"smiles": "CC(C)c1ccc(/C=C/C(=O)Nc2ccc(CN3CCOCC3)cc2)cc1", "Potency": "inconclusive: 35.5 µM [inhibitor, single point]"},
      {"smiles": "COc1cc([N+](=O)[O-])cc(/C=N/NC(=O)c2cc(C)nc3ccccc23)c1O", "Potency": "active: 5.62 µM"},
      {"smiles": "COCCOC(=O)C1=C(C)N(c2ccccc2)C(=O)NC1c1cccc([N+](=O)[O-])c1", "note": "(stereo not given)", "Potency": "inconclusive: 0.0028 µM [inhibitor, full curve, poor fit]"},
      {"smiles": "Cc1noc(NC(=O)c2cccc(C(F)(F)F)c2)c1Cl", "Potency": "inconclusive: 31.6 µM [activator, single point]"},
      {"smiles": "O=[N+]([O-])c1ccc(N2CCCCC2)nc1N1CCCCC1", "Potency": "inconclusive: 35.5 µM [activator, single point]"},
      {"smiles": "CCN(CC)CCCNC(=O)CSc1nc(-c2ccc(F)cc2)cc(C(F)(F)F)n1", "Potency": "inconclusive: 35.5 µM [activator, single point]"},
      {"smiles": "Cc1onc(-c2ccccc2Cl)c1C(=O)Nc1ccc(-n2nncc2-c2ccco2)cc1", "Potency": "inconclusive: 14.1 µM [activator, partial curve]"},
      {"smiles": "O=S(=O)(c1ccc(Cl)cc1)N1CCN(Cc2ccc(O)c3ncccc23)CC1", "Potency": "active: 1 µM"},
      {"smiles": "O=C(NNC(=O)C1COc2ccccc2O1)c1cccc([N+](=O)[O-])c1", "note": "(stereo not given)", "activity change, negative = inhibition": "inactive: 7.57%"},
      {"smiles": "CC(C)c1ccc(NC(=O)CCNC(=O)N2CC(=O)Nc3ccccc32)cc1", "activity change, negative = inhibition": "inactive: -3.16%"},
      {"smiles": "CCCCc1ccc(NC(=S)NCCc2ccc(F)cc2)cc1", "Potency": "active: 2.24 µM"},
      {"smiles": "CCNC(=S)N/N=C/c1cccc(/C=N/NC(=S)NCC)c1", "Potency": "inconclusive: 35.5 µM [inhibitor, single point]"},
      {"smiles": "Cc1ccc(S(=O)(=O)CCC(=O)N(C)C2CCCCC2)cc1", "activity change, negative = inhibition": "inactive: 16%"},
      {"smiles": "COc1cccc(Cn2cnc3c(NS(=O)(=O)c4cc(Cl)ccc4Cl)c(C)c(C)cc32)c1", "Potency": "inconclusive: 35.5 µM [inhibitor, single point]"},
      {"smiles": "COCCN1CCCC(CNCc2cn(C)nc2-c2ccc(Oc3ccccc3)cc2)C1", "note": "(stereo not given)", "Potency": "inconclusive: 12.6 µM [inhibitor, single point]"},
      {"smiles": "Cc1cc(Nc2ccccc2)nc(NCc2ccccc2)n1", "Potency": "active: 2.82 µM"},
      {"smiles": "CCCCSc1cnn(-c2ccccc2)c(=O)c1SCCCC", "Potency": "inconclusive: 35.5 µM [inhibitor, single point]"},
      {"smiles": "O=C(NC(=S)Nc1cccnc1)c1cccs1", "Potency": "active: 10 µM"},
      {"smiles": "Cc1cc(C(=O)N/N=C/c2ccc(OC(=O)c3ccccc3Br)cc2)n[nH]1", "activity change, negative = inhibition": "inactive: -9.99%"},
      {"smiles": "CC(=O)Oc1ccc(C(=O)[C@H]2[C@H]3C(=O)N(c4ccc(C)cc4)C(=O)[C@H]3[C@@H]3C=CC=NN32)cc1", "Potency": "inconclusive: 22.4 µM [inhibitor, single point]"},
      {"smiles": "CC(=O)c1ccc(N2CCN(C(=O)c3ccc(NC4=NC5CS(=O)(=O)CC5S4)cc3)CC2)cc1", "note": "(stereo not given)", "activity change, negative = inhibition": "inactive: -12.8%"},
      {"smiles": "COc1ccccc1NC(=O)CN1CCN(C2c3ccccc3-c3ccccc32)CC1", "Potency": "inconclusive: 35.5 µM [inhibitor, single point]"},
      {"smiles": "Cc1cccc(N2CCN(Cc3ccoc3)CC2)c1C", "activity change, negative = inhibition": "inactive: -6.68%"},
      {"smiles": "C=C(C)C(=O)Nc1nnc(-c2ccccc2C)s1", "activity change, negative = inhibition": "inactive: 10.5%"},
      {"smiles": "Cc1ccc(S(=O)(=O)CCSc2nc(C)cc(C(F)(F)F)c2C#N)cc1", "Potency": "inconclusive: 5.62 µM [activator, single point]"},
      {"smiles": "CC(=O)N(c1cccc(C(F)(F)F)c1)c1nc(/C=C/C(=O)O)cs1", "activity change, negative = inhibition": "inactive: -0.865%"},
      {"smiles": "Cc1ccc(-c2cc(-c3ccc(F)cc3)nc(N)c2C#N)o1", "activity change, negative = inhibition": "inactive: 0%"},
      {"smiles": "NS(=O)(=O)c1ccc(N/N=C/C=C/c2ccccc2[N+](=O)[O-])cc1", "Potency": "inconclusive: 11.2 µM [activator, partial curve]"},
      {"smiles": "O=c1c2ccccc2ncn1/N=C/c1ccccc1", "Potency": "active: 10 µM"},
      {"smiles": "CC(C)CN1C(=O)/C(=C(/C#N)C(=O)NC2CCCCC2)c2ccccc21", "Potency": "inconclusive: 35.5 µM [inhibitor, single point]"},
      {"smiles": "CCOc1cc(NC(=S)Nc2cccc(OC)c2)c(OCC)cc1NC(=O)c1ccc(C)cc1", "Potency": "active: 7.94 µM"},
      {"smiles": "CCN(CC(=O)Nc1c(F)cccc1F)C(=O)c1ccc(C(F)(F)F)cc1", "activity change, negative = inhibition": "inactive: -4.73%"},
      {"smiles": "CN(C)c1ccc(/C=C2\\NC(=S)N(Cc3ccccc3)C2=O)cc1", "Potency": "active: 5.01 µM"},
      {"smiles": "COc1cccc(CC2(CO)CCN(Cc3ccc(NC(C)=O)cc3)CC2)c1", "activity change, negative = inhibition": "inactive: 1.82%"},
      {"smiles": "COC(=O)c1ccccc1NC(=O)NCc1cccnc1", "activity change, negative = inhibition": "inactive: -5.79%"},
      {"smiles": "CC(=O)Nc1ccc(SCC(=O)c2cc(C)n(C)c2C)cc1", "Potency": "inconclusive: 1.41 µM [activator, full curve]"},
      {"smiles": "COc1cc(/C=C2\\SC(=S)N(CCC(=O)Nc3ccc(O)cc3)C2=O)cc(OC)c1OC", "Potency": "inconclusive: 15.8 µM [inhibitor, single point]"},
      {"smiles": "COc1cc(N/N=C/c2ccccc2O)ncn1", "Potency": "active: 7.08 µM"},
      {"smiles": "CN(C)S(=O)(=O)c1cccc(C(=O)NC2CCCc3ccccc32)c1", "note": "(stereo not given)", "Potency": "inconclusive: 12.6 µM [activator, single point]"},
      {"smiles": "Nc1cc(CN2C(=O)c3ccccc3C2=O)cc(Cl)c1O", "Potency": "inconclusive: 14.1 µM [activator, single point]"},
      {"smiles": "O=C1/C(=C/N(C(=O)c2ccco2)c2ccc(Cl)cc2)Sc2ccccc21", "Potency": "inconclusive: 28.2 µM [inhibitor, single point]"},
      {"smiles": "COc1ccc(/C=N/OC/C(O)=C(\\C#N)c2nc3ccccc3[nH]2)cc1OC", "activity change, negative = inhibition": "inactive: -23.2%"},
      {"smiles": "CN1CCc2c(sc(NC(=O)Cc3ccccc3)c2C(N)=O)C1", "activity change, negative = inhibition": "inactive: -28.7%"},
      {"smiles": "O=C1N/C(=N\\N=C\\c2ccco2)SC1Cc1ccc(F)cc1", "note": "(stereo not given)", "Potency": "active: 1 µM"},
      {"smiles": "COc1cc(NC(=O)CN2CCN(c3ccccc3O)CC2)c(C)cc1[N+](=O)[O-]", "Potency": "inconclusive: 7.94 µM [activator, partial curve]"},
      {"smiles": "COCCNC(=O)c1cccc(NS(=O)(=O)c2cccc3cccnc23)c1", "activity change, negative = inhibition": "inactive: -14.1%"},
      {"smiles": "Cn1cnnc1SCC(C)(C)NS(=O)(=O)c1ccc(Cl)cc1", "activity change, negative = inhibition": "inactive: 0.276%"},
      {"smiles": "CCOc1ccc(N(C)S(=O)(=O)c2ccc3[nH]cc(C(=O)NCCOC)c(=O)c3c2)cc1", "Potency": "inconclusive: 22.4 µM [activator, single point]"},
      {"smiles": "Cc1nc2ccccc2n1CC(=O)N/N=C\\C=C\\c1ccccc1", "Potency": "inconclusive: 35.5 µM [inhibitor, single point]"},
      {"smiles": "COc1ccc(C(=O)NC(=S)NCc2cccnc2)cc1Br", "Potency": "inconclusive: 15.8 µM [inhibitor, single point]"},
      {"smiles": "CCc1ccccc1NC(=S)NC1CC2CCCC(C1)N2Cc1cccs1", "note": "(stereo not given)", "Potency": "active: 11.2 µM"},
      {"smiles": "Cc1cc(NS(=O)(=O)c2ccc(NC(=O)CSc3nc4sc(C(=O)O)c(C)c4c(=O)[nH]3)cc2)no1", "activity change, negative = inhibition": "inactive: 3.8%"},
      {"smiles": "COc1ccc(C(=O)NC2CCCc3c2cnn3-c2ccc(C)c(C)c2)c(OC)c1OC", "note": "(stereo not given)", "Potency": "inconclusive: 12.6 µM [activator, single point]"},
      {"smiles": "Cn1c(=O)c2c(nc(N/N=C/c3cccs3)n2Cc2ccc(Br)cc2)n(C)c1=O", "Potency": "inconclusive: 22.4 µM [inhibitor, single point]"}
    ]}
  ]
}
